Data as given in PubChem BioAssay AID1259254 (NCATS, 2017).
Test: 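Finding genes that stop cells copying their DNA twice in one cycle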 (primary screen). System: human HCT116 colorectal cancer cells. Knock-down reagent: single siRNA against human genes. Duration: 3 days. Measured: 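Imaged Hoechst DNA stain sorts each cell into a cycle phase by DNA amount; per plate, G2 fraction set to 0% for non-targeting and 100% for GMNN siRNA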. Reading the numbers: G2 robust z-score and G2 cells, % of GMNN control: higher = more G2 cells, more excess DNA replication; raw share of cells in G2: higher = larger share of cells with G2 DNA content. Rule for the call: 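Active siRNAs have a G2 robust z of 5 or more median absolute deviations over the median, which in these data means about 38% or higher of GMNN control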.
Shown is one part, drawn at random, of about 59,000 deposited reagents. About 1,550 of them (2.6%) count as active. 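G2 share is only a proxy for re-replication; each gene was hit by three separate siRNAs, and active genes were retested.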 The raw values are shown without normalisation. Reagents against one gene are numbered here. The record does not give: the amount of reagent.

gene	siRNA no.	G2 robust z-score	G2 cells, % of GMNN control	raw share of cells in G2 (%)	activity call
AMY2A	1	-0.927	-3.55	3.81	inactive
AMY2A	2	0.138	3.94	6.06	inactive
AMY2A	3	1.52	13.6	9.07	inactive
PCDHA12	1	-0.214	1.46	7.07	inactive
PCDHA12	2	-0.828	-2.86	3.41	inactive
PCDHA12	3	-0.179	1.7	5.04	inactive
ADM2	1	0.518	6.61	4.19	inactive
ADM2	2	-0.553	-0.922	4.06	inactive
ADM2	3	0.219	4.51	6.28	inactive
LOC648999 (retired record)	1	0.87	9.09	7.28	inactive
LOC648999 (retired record)	2	-0.744	-2.27	2.34	inactive
LOC648999 (retired record)	3	0.403	5.8	4.5	inactive

A run of entries taken from the entries so far, as a working copy:
gene	siRNA no.	G2 robust z-score	G2 cells, % of GMNN control	raw share of cells in G2 (%)	activity call
AMY2A	1	-0.927	-3.55	3.81	inactive
AMY2A	2	0.138	3.94	6.06	inactive
AMY2A	3	1.52	13.6	9.07	inactive

More reagents follow:
gene	siRNA no.	G2 robust z-score	G2 cells, % of GMNN control	raw share of cells in G2 (%)	activity call
PPP4C	1	-1.18	-5.35	3.06	inactive
PPP4C	2	-1.12	-4.93	2.82	inactive
PPP4C	3	0.794	8.56	6.07	inactive
TM9SF4	1	-0.0782	2.42	4.02	inactive
TM9SF4	2	2.32	19.3	12.5	inactive
TM9SF4	3	2.14	18	12.1	inactive
AKT1	1	0.109	3.73	6.84	inactive
AKT1	2	-0.857	-3.06	4.38	inactive
AKT1	3	0.183	4.25	5.52	inactive
C20orf204	1	-0.547	-0.884	2.7	inactive
C20orf204	2	0.178	4.22	4.55	inactive
C20orf204	3	2.12	17.9	10.2	inactive
GOLM1	1	-0.156	1.87	4.57	inactive
GOLM1	2	-0.664	-1.7	3.9	inactive
GOLM1	3	-1.08	-4.63	1.79	inactive
TCN1	1	2.98	23.9	15.7	inactive
TCN1	2	-0.231	1.34	4.43	inactive
TCN1	3	0.819	8.73	6.44	inactive
